We go through 20 compounds from PubChem BioAssay AID256 (DTP/NCI, 2004).

This test has as its system CD2F1 mice, L1210 leukemia ip, survival T/C. The test can be described thus: NCI In Vivo Anticancer Drug Screen. Data for tumor model L1210 Leukemia (intraperitoneal) in CD2F1 (CDF1) mice. As to conditions: higher T/C = longer survival. Put shortly:
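Each value reflects a quotient of treated over vehicle control outcomes in mice with a transplanted tumor.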

[1] abbreviates: T/C endpoint: mean survival time, dose: 200.0 mg/kg/injection, schedule: Q01DX001 (ip), vehicle: saline.
Setting [2] is: T/C endpoint: mean survival time, dose: 400.0 mg/kg/injection, schedule: Q01DX001 (ip), vehicle: saline.
[3] abbreviates: T/C endpoint: mean survival time, dose: 400.0 mg/kg/injection, schedule: Q04DX002 (ip), vehicle: saline with Tween-80.
Setting [4] is: T/C endpoint: mean survival time, dose: 200.0 mg/kg/injection, schedule: Q01DX009 (ip), vehicle: saline with Tween-80.
The mark [5] stands for this setting: T/C endpoint: mean survival time, dose: 400.0 mg/kg/injection, schedule: Q01DX009 (ip), vehicle: saline with Tween-80.
The mark [6] stands for this setting: T/C endpoint: mean survival time, dose: 400.0 mg/kg/injection, schedule: Q04DX003 (ip), vehicle: saline with Tween-80.
Where [7] appears, read: T/C endpoint: mean survival time, dose: 100.0 mg/kg/injection, schedule: Q04DX003 (ip), vehicle: saline with Tween-80.
Setting [8] is: T/C endpoint: mean survival time, dose: 200.0 mg/kg/injection, schedule: Q04DX003 (ip), vehicle: saline with Tween-80.

The list does not hold the whole screen: it gathers tests that were run many times, whatever their T/C, doses with no T/C, and many T/C values between a quarter and a half above the control. Other doses and runs of a compound stand elsewhere. T/C is the treated group as % of the vehicle group. Some entries give survivors of the animals treated and no T/C: the source holds a T/C of zero for them, seemingly a mark for toxic or unscored doses. Some doses without a T/C left all or most animals alive at the check, yet need not have been tolerated: survival well below the control is almost never listed, so the zero probably covers shortened survival too. Survivors were counted at the toxicity check, usually on the fifth day, unless a day is given; later deaths do not show. Schedules are NCI's codes, taken here to give the interval after Q, in days (D) or hours (H), and the number of doses after X. Additions like (4×) give the number of equal values in this list. Some entries were tested several times; their values stand side by side, smallest first. For survival time, the PubChem record calls one and a half times the control and up active, and a quarter to a half above the control has no call in these data; cut-offs in other NCI protocols can differ. Some T/C values carry the count of animals alive at the toxicity check (mostly the fifth day); without a count, all were alive then.

For `CN(C)CCCN1c2ccccc2Sc2ccc(C(F)(F)F)cc21`, the survivor count by setting is: (T/C endpoint: mean survival time, dose: 50.0 mg/kg/injection, schedule: Q01DX009 (ip), vehicle: saline) 3 of 6; (T/C endpoint: mean survival time, dose: 100.0 mg/kg/injection, schedule: Q01DX001 (ip), vehicle: saline) 1 of 6 and 3 of 6; under setting [1], 0 of 6 (2×); under setting [2], 0 of 6.

Consider `Cc1ccc(C2=C(O)C(=O)C(c3ccc(C)cc3)=C(O)C2=O)cc1`, for which the survivor count (T/C endpoint: mean survival time, dose: 300.0 mg/kg/injection, schedule: Q01DX001 (ip), vehicle: other) is reported as 0 of 6.

For the compound `CC(=O)C(C(C)=O)C(=[C-]C(F)(F)F)C(F)(F)F.CC(=O)C(C(C)=O)C(=[C-]C(F)(F)F)C(F)(F)F.[Pd+2]`, the survivor count runs as follows: (T/C endpoint: mean survival time, dose: 25.0 mg/kg/injection, schedule: Q04DX003 (ip), vehicle: distilled water + Tween-80) 2 of 6; (T/C endpoint: mean survival time, dose: 50.0 mg/kg/injection, schedule: Q04DX003 (ip), vehicle: distilled water + Tween-80) 0 of 6; (T/C endpoint: mean survival time, dose: 100.0 mg/kg/injection, schedule: Q04DX003 (ip), vehicle: distilled water + Tween-80) 0 of 6; (T/C endpoint: mean survival time, dose: 200.0 mg/kg/injection, schedule: Q04DX003 (ip), vehicle: distilled water + Tween-80) 0 of 6.

On to `COc1ccc(/C=N/NC(=S)Nc2ccccn2)cc1OC`, for which the survivor count reads like this: (T/C endpoint: mean survival time, dose: 200.0 mg/kg/injection, schedule: Q04DX002 (ip), vehicle: saline with Tween-80) 0 of 3; under setting [3], 0 of 3.

In the case of `O=C(CSCCN1CCCCC1)N1c2ccccc2Sc2ccccc21`, the survivor count by setting is: (T/C endpoint: mean survival time, dose: 100.0 mg/kg/injection, schedule: Q04DX003 (ip), vehicle: saline) 0 of 6; (T/C endpoint: mean survival time, dose: 200.0 mg/kg/injection, schedule: Q04DX003 (ip), vehicle: saline) 0 of 6; (T/C endpoint: mean survival time, dose: 400.0 mg/kg/injection, schedule: Q04DX003 (ip), vehicle: saline) 0 of 6.

Consider `O=S1(=O)Cc2c(Br)c(Br)c(Br)c(Br)c2C1`, for which the survivor count is, setting by setting: (T/C endpoint: mean survival time, dose: 100.0 mg/kg/injection, schedule: Q01DX009 (ip), vehicle: saline with Tween-80) 6 of 6; under setting [4], 6 of 6; under setting [5], 4 of 6.

For the compound `CCOC(CNCc1ccc(OC)cc1)OCC`, the survivor count under setting [2] is on record as 0 of 6.

Take `O=S(CCO)c1c(Cl)c(Cl)c(Cl)c(Cl)c1Cl` (stereo not drawn): under setting [3], the survivor count is reported as 1 of 3.

Take `COc1cc2cc[n+](C)cc2cc1OC`: the survivor count is reported as 0 of 6 (T/C endpoint: mean survival time, dose: 200.0 mg/kg/injection, schedule: Q01DX009 (ip), vehicle: water) and 0 of 6 (T/C endpoint: mean survival time, dose: 400.0 mg/kg/injection, schedule: Q01DX009 (ip), vehicle: water).

For the compound `COc1ccc(C#N)c([N+](=O)[O-])c1`, the survivor count under setting [6] is 3 of 6.

As for `NNC(=S)NC1CC2C=CC1C2` (stereo not drawn), the survivor count is 1 of 3 under setting [7], 0 of 3 under setting [8] and 0 of 3 under setting [6].

As for `C=Cc1cc(OC)c2c(c1)c(=O)oc1c2cc(OC)c2c(O)ccc(C3OC(C)C(O)C(C)(O)C3O)c21` (stereo not drawn), the T/C runs as follows: (T/C endpoint: median survival time, dose: 20.0 mg/kg/injection, schedule: Q01DX009 (ip), vehicle: other) 125 % of control; (T/C endpoint: median survival time, dose: 40.0 mg/kg/injection, schedule: Q01DX009 (ip), vehicle: DMSO) 131 and 133 % of control; (T/C endpoint: median survival time, dose: 40.0 mg/kg/injection, schedule: Q01DX009 (ip), vehicle: other) 142 % of control; (T/C endpoint: median survival time, dose: 80.0 mg/kg/injection, schedule: Q01DX009 (ip), vehicle: DMSO) 144 % of control; (T/C endpoint: median survival time, dose: 80.0 mg/kg/injection, schedule: Q01DX009 (ip), vehicle: other) 144 % of control.

For the compound `Nc1nc[nH]c(=O)c1NC(=O)c1cccc([N+](=O)[O-])c1`, the T/C is 94, 97, 100, 108 % of control under setting [7]; 89, 101, 110 % of control [5 of 6 alive] under setting [8]; 98 [4 of 6 alive], 101, 106 % of control [5 of 6 alive] under setting [6]. Also, the survivor count under setting [8] is 3 of 3 and the survivor count under setting [6] is 0 of 3.

In the case of `O=[N+]([O-])c1cc(Cl)c(Cl)cc1Cl`, the survivor count under setting [5] is listed as 0 of 6.

As for `COc1cc(Cl)ccc1NC(=O)Nc1ccc(CCO)cc1`, the survivor count under setting [4] is given as 3 of 3.

With `CC(CN=Cc1ccccc1[O-])N=Cc1ccccc1[O-].[O]=[V]` (stereo not drawn), the survivor count runs as follows: under setting [7], 0 of 6; under setting [8], 0 of 6; under setting [6], 0 of 6.

Regarding `CC1(C)c2c3ccccc3cc3cccc(c23)[S+]1c1ccccc1` (stereo not drawn), the survivor count is, setting by setting: (T/C endpoint: mean survival time, dose: 100.0 mg/kg/injection, schedule: Q01DX001 (ip), vehicle: saline with Tween-80) 0 of 6; (T/C endpoint: mean survival time, dose: 200.0 mg/kg/injection, schedule: Q01DX001 (ip), vehicle: saline with Tween-80) 0 of 6; (T/C endpoint: mean survival time, dose: 400.0 mg/kg/injection, schedule: Q01DX001 (ip), vehicle: saline with Tween-80) 0 of 6.

For `CN(C)C=Nc1ccc(C#N)cc1`, the survivor count under setting [1] is given as 0 of 4 and the survivor count under setting [2] is 0 of 4.

As for `O=C(O)CN(CC(=O)O)C1CCCCC1N(CC(=O)O)CC(=O)O.[Cl][Pd][Cl]` (stereo not drawn), the survivor count (T/C endpoint: median survival time, dose: 320.0 mg/kg/injection, schedule: Q04DX003 (ip), vehicle: saline) is recorded as 1 of 6.

On to `O=C(O)c1ccc(C(=O)O)o1.[NH-]C1CCCCC1[NH-].[Pt+2]`, for which the T/C (T/C endpoint: mean survival time, dose: 5.0 mg/kg/injection, schedule: Q04DX003 (ip), vehicle: dextrose) was 129 % of control and the T/C (T/C endpoint: mean survival time, dose: 20.0 mg/kg/injection, schedule: Q04DX003 (ip), vehicle: dextrose) was 127 % of control.
